According to patent US20120035237A1, “PYRAZOLE AND TRIAZOLE CARBOXAMIDES AS CRAC CHANN EL INHIBITORS” (priority 2009, published 2012):
Some results were stated once for a whole list of compounds, not compound by compound.

Amino acid sequences for entries named in this document (tags omitted).
UniProt Q96D31, whole entry: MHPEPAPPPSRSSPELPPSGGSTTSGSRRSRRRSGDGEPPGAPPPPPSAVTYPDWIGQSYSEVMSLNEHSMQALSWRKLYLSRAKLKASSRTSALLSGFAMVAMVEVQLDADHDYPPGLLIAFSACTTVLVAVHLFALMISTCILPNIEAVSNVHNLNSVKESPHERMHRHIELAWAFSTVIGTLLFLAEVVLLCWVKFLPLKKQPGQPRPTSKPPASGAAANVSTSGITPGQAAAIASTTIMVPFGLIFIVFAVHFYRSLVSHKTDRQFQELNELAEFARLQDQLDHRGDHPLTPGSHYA

Target: ICRAC current (Homo sapiens, UniProt Q96D31)
Assay: ICRAC assay: thapsigargin-induced calcium depletion, calcium add-back, Fluo-4 fluorescence on FLIPR in Jurkat E6-1 cells
Type: cell-based
Conditions: Jurkat E6-1 T lymphocyte cell line; thapsigargin 5 μM; inhibition of fluorescence signal on calcium add-back (1.2 mM FAC)

| Compound | pIC50 |
| --- | --- |
| CCOc1ccc(COc2ccccc2Cn2ccc(C(=O)Nc3c(F)cccc3F)n2)cc1 [Example 59, N-(2,6-difluorophenyl)-1-{[2-({[4-(ethyloxy)phenyl]methyl}oxy)phenyl]methyl}-1H-pyrazole-3-carboxamide] | ≥ 6.0 |
| CCCOc1ccc(Cl)cc1Cn1ccc(C(=O)Nc2c(F)cccc2F)n1 [Example 7, 1-{[5-Chloro-2-(propyloxy)phenyl]methyl}-N-(2,6-difluorophenyl)-1H-pyrazole-3-carboxamide] | ≥ 6.0 |
| CC(C)(C)c1cc(COc2ccccc2Cn2ccc(C(=O)Nc3c(F)cccc3F)n2)cc(C(C)(C)C)c1 [Example 49, 1-{[2-({[3,5-bis(1,1-dimethylethyl)phenyl]methyl}oxy)phenyl]methyl}-N-(2,6-difluorophenyl)-1H-pyrazole-3-carboxamide] | < 5.3 |
| CCOc1ccccc1Cn1ccc(C(=O)Nc2c(F)cccc2F)n1 [Example 47, N-(2,6-difluorophenyl)-1-{[2-(ethyloxy)phenyl]methyl}-1H-pyrazole-3-carboxamide] | < 5.3 |
| CCC(C)COc1ccccc1Cn1ccc(C(=O)Nc2c(F)cccc2F)n1 (stereo not shown) [Example 18, N-(2,6-Difluorophenyl)-1-({2-[(2-methylbutyl)oxy]phenyl}methyl)-1H-pyrazole-3-carboxamide] | ≥ 6.0 |
| CC(C)CCOc1ccc(Cl)cc1Cn1ccc(C(=O)Nc2c(F)cccc2F)n1 [Example 3, 1-({5-Chloro-2-[(3-methylbutyl)oxy]phenyl}methyl)-N-(2,6-difluorophenyl)-1H-pyrazole-3-carboxamide] | ≥ 6.0 |
| O=C(Nc1ccccc1F)c1ccn(Cc2cc(Cl)ccc2OCc2ccccc2)n1 [Example 48, 1-({5-chloro-2-[(phenylmethyl)oxy]phenyl}methyl)-N-(2-fluorophenyl)-1H-pyrazole-3-carboxamide] | < 5.3 |
| O=C(Nc1c(F)cccc1F)c1ccn(Cc2ccccc2Oc2ccccc2)n1 [Example 25, N-(2,6-difluorophenyl)-1-{[2-(phenyloxy)phenyl]methyl}-1H-pyrazole-3-carboxamide] | ≥ 6.0 |
| COc1cccc(COc2ccccc2Cn2ccc(C(=O)Nc3c(F)cccc3F)n2)c1 [Example 54, N-(2,6-difluorophenyl)-1-{[2-({[3-(methyloxy)phenyl]methyl}oxy)phenyl]methyl}-1H-pyrazole-3-carboxamide] | ≥ 6.0 |
| O=C(Nc1c(F)cccc1F)c1ccn(Cc2cc(Cl)ccc2OCc2ccccc2)n1 [Example 1, 1-({5-Chloro-2-[(phenylmethyl)oxy]phenyl}methyl)-N-(2,6-difluorophenyl)-1H-pyrazole-3-carboxamide] | ≥ 6.0 |
| CC(C)COc1ccc(Cl)cc1Cn1ccc(C(=O)Nc2c(F)cccc2F)n1 [Example 2, 1-({5-Chloro-2-[(2-methylpropyl)oxy]phenyl}methyl)-N-(2,6-difluorophenyl)-1H-pyrazole-3-carboxamide] | ≥ 6.0 |
| O=C(Nc1c(F)cccc1F)c1cnn(Cc2ccccc2OCC2CCC2)n1 [Example 42, 2-({2-[(Cyclobutylmethyl)oxy]phenyl}methyl)-N-(2,6-difluorophenyl)-2H-1,2,3-triazole-4-carboxamide] | ≥ 6.0 |
| CC(C)c1ccc(COc2ccccc2Cn2ccc(C(=O)Nc3c(F)cccc3F)n2)cc1 [Example 50, N-(2,6-difluoro-phenyl)-1-{[2-({[4-(1-methylethyl)phenyl]methyl}oxy)phenyl]methyl}-1H-pyrazole-3-carboxamide] | < 5.3 |
| CCOc1cccc(COc2ccccc2Cn2ccc(C(=O)Nc3c(F)cccc3F)n2)c1 [Example 60, N-(2,6-difluorophenyl)-1-{[2-({[3-(ethyloxy)phenyl]methyl}oxy)phenyl]methyl}-1H-pyrazole-3-carboxamide] | ≥ 6.0 |
| CCCCOc1ccccc1Cn1ccc(C(=O)Nc2c(F)cccc2Cl)n1 [Example 39, 1-{[2-(Butyloxy)phenyl]methyl}-N-(2-chloro-6-fluorophenyl)-1H-pyrazole-3-carboxamide] | ≥ 6.0 |
| O=C(Nc1c(F)cccc1F)c1ccn(Cc2cc(Cl)ccc2OCC2CC2)n1 [Example 5, 1-({5-Chloro-2-[(cyclopropylmethyl)oxy]phenyl}methyl)-N-(2,6-difluorophenyl)-1H-pyrazole-3-carboxamide] | ≥ 6.0 |
| CC(C)=CCOc1ccccc1Cn1ccc(C(=O)Nc2c(F)cccc2F)n1 [Example 19, N-(2,6-Difluorophenyl)-1-({2-[(3-methyl-2-buten-1-yl)oxy]phenyl}methyl)-1H-pyrazole-3-carboxamide] | ≥ 6.0 |

| Compound | pIC50 |
| --- | --- |
| O=C(Nc1c(F)cccc1F)c1ccn(Cc2cc(Br)ccc2OCc2ccccc2)n1 [Example 24, 1-({5-Bromo-2-[(phenylmethyl)oxy]phenyl}methyl)-N-(2,6-difluorophenyl)-1H-pyrazole-3-carboxamide] | ≥ 6.0 |
| O=C(Nc1c(F)cccc1F)c1cnn(Cc2ccccc2Oc2ccccc2)n1 [Example 43, N-(2,6-difluorophenyl)-2-{[2-(phenyloxy)phenyl]methyl}-2H-1,2,3-triazole-4-carboxamide] | ≥ 6.0 |
| O=C(Nc1c(F)cccc1F)c1ccn(Cc2cc(Cl)ccc2Oc2ccccc2)n1 [Example 22, 1-{[5-Chloro-2-(phenyloxy)phenyl]methyl}-N-(2,6-difluorophenyl)-1H-pyrazole-3-carboxamide] | ≥ 6.0 |
| COc1ccc(COc2ccccc2Cn2ccc(C(=O)Nc3c(F)cccc3F)n2)cc1 [Example 55, N-(2,6-difluorophenyl)-1-{[2-({[4-(methyloxy)phenyl]methyl}oxy)phenyl]methyl}-1H-pyrazole-3-carboxamide] | ≥ 6.0 |
| O=C(Nc1c(F)cccc1F)c1ccn(Cc2cc(Cl)ccc2OCc2c(F)cccc2F)n1 [Example 6, 1-[(5-Chloro-2-{[(2,6-difluorophenyl)methyl]oxy}phenyl)methyl]-N-(2,6-difluorophenyl)-1H-pyrazole-3-carboxamide] | ≥ 6.0 |
| COc1ccccc1Cn1ccc(C(=O)Nc2c(F)cccc2F)n1 [Example 26, N-(2,6-difluorophenyl)-1-{[2-(methyloxy)phenyl]methyl}-1H-pyrazole-3-carboxamide] | < 5.3 |
| O=C(Nc1c(F)cccc1F)c1ccn(Cc2ccccc2OCC2CCC2)n1 [Example 17, 1-({2-[(Cyclobutylmethyl)oxy]phenyl}methyl)-N-(2,6-difluorophenyl)-1H-pyrazole-3-carboxamide] | ≥ 6.0 |
| CCCCOc1ccccc1Cn1ccc(C(=O)Nc2c(F)cncc2F)n1 [Example 36, 1-{[2-(Butyloxy)phenyl]methyl}-N-(3,5-difluoro-4-pyridinyl)-1H-pyrazole-3-carboxamide] | ≥ 6.0 |
| Cc1ccc(COc2ccccc2Cn2ccc(C(=O)Nc3c(F)cccc3F)n2)cc1 [Example 52, N-(2,6-difluorophenyl)-1-[(2-{[(4-methylphenyl)methyl]oxy}phenyl)methyl]-1H-pyrazole-3-carboxamide] | ≥ 6.0 |
| CC(C)COc1ccc(Cl)cc1Cn1ncc(C(=O)Nc2c(F)cccc2F)n1 [Example 44, 2-({5-chloro-2-[(2-methylpropyl)oxy]phenyl}methyl)-N-(2,6-difluorophenyl)-2H-1,2,3-triazole-4-carboxamide] | ≥ 6.0 |
| O=C(Nc1c(F)cccc1F)c1ccn(Cc2ccccc2OCc2ccccc2)n1 [Example 15, N-(2,6-Difluorophenyl)-1-({2-[(phenylmethyl)oxy]phenyl}methyl)-1H-pyrazole-3-carboxamide] | ≥ 6.0 |
| O=C(Nc1c(F)cccc1F)c1ccn(Cc2ccccc2OCc2cccc(I)c2)n1 [Example 57, N-(2,6-difluorophenyl)-1-[(2-{[(3-iodophenyl)methyl]oxy}phenyl)methyl]-1H-pyrazole-3-carboxamide] | < 5.3 |
| CCCCOc1ccc(Cl)cc1Cn1ccc(C(=O)Nc2c(F)cccc2F)n1 [Example 4, 1-{[2-(Butyloxy)-5-chlorophenyl]methyl}-N-(2,6-difluorophenyl)-1H-pyrazole-3-carboxamide] | ≥ 6.0 |
| CCCCOc1ccc(Cl)cc1Cn1ncc(C(=O)Nc2c(F)cccc2F)n1 [Example 45, 2-{[2-(Butyloxy)-5-chlorophenyl]methyl}-N-(2,6-difluorophenyl)-2H-1,2,3-triazole-4-carboxamide] | ≥ 6.0 |
| O=C(Nc1c(F)cccc1F)c1ccn(Cc2cc(Cl)ccc2OCC2CCC2)n1 [Example 8, 1-({5-Chloro-2-[(cyclobutylmethyl)oxy]phenyl}methyl)-N-(2,6-difluorophenyl)-1H-pyrazole-3-carboxamide] | ≥ 6.0 |
| CC(C)COc1ccccc1Cn1ccc(C(=O)Nc2c(F)cccc2F)n1 [Example 16, N-(2,6-Difluorophenyl)-1-({2-[(2-methylpropyl)oxy]phenyl}methyl)-1H-pyrazole-3-carboxamide] | ≥ 6.0 |
| O=C(Nc1c(F)cccc1F)c1cnn(Cc2cc(Cl)ccc2OCc2ccccc2)n1 [Example 40, 2-({5-Chloro-2-[(phenylmethyl)oxy]phenyl}methyl)-N-(2,6-difluorophenyl)-2H-1,2,3-triazole-4-carboxamide] | ≥ 6.0 |
